Results as given in PubChem BioAssay AID1347076 (National Center for Advancing Translational Sciences (NCATS), 2019).
The whole screen tested about 400,000 compounds, of which about 13,000 (3.2%) were called active. Inconclusive means that the source gave no clear call. Such entries were picked first, then a sample of the others. The call rests on the fitted dose curve; in most records, active means well fitted cell-killing curve with a large enough effect; inconclusive means small, poorly fitted or top-dose-only effect, or effect the other way; inactive means flat fitted curve, though single readings scatter. A potency beside an inconclusive call is a rough fit, not a confirmed value.

Assay: qHTS assay for MDR1-selective chemotherapeutics: Primary screen using the drug-selected MDR subline cells KB-V1; further: nearly all actives have a fitted effect of over 60% in size
Conditions: KB-V1 MDR cells viability, CellTiter-Glo, 72 h; activity change, negative = cytotoxicity: at 46.1 µM (top of the series)
Summary of the method: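 KB-V1 cells (P-gp-expressing MDR subline of KB-3-1) in phenol-red-free DMEM with 10% FBS were exposed to library compounds over a concentration series for 72 h at 37 degrees C. Viability read by CellTiter-Glo luminescence; concentration-effect curves fitted after normalization.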
On the % scale 0 is the no-effect control and ±100 the full control effect; potency means the concentration at half of the fitted maximal effect.

Row | SMILES | Potency | activity change, negative = cytotoxicity
1 | CC(=O)C1=C(O)C(=O)N(CCc2c[nH]c3ccccc23)C1c1ccccc1 (stereo not drawn) | inactive | –
2 | CC(C)(C)OC(=O)N1CCC(NC(=O)c2[nH]cnc2C(=O)Nc2cccc(Cl)c2)CC1 | inconclusive: 16.4 µM [cytotoxic, single point] | –
3 | O=C1CCC(C(=O)N2CCC(O)(c3ccccc3)CC2)CN1CCc1ccccc1 (stereo not drawn) | inconclusive: 29.1 µM [rising, partial curve, poor fit] | –
4 | CCCN1CCC(NC(=O)c2cccc(Oc3ccccc3)c2)CC1 | inconclusive: 18.4 µM [cytotoxic, single point] | –
5 | O=C(COc1ccc(F)cc1Br)NCC1(N2CCOCC2)CCCCC1 | inactive | –
6 | Cc1ccc2c(=O)cc(C(=O)Nc3sc4c(c3C(=O)NCc3ccco3)CCC4)oc2c1 | inactive | –
7 | Cc1ccc(SCc2cc(=O)[nH]c(/N=C(\N)Nc3cccc4ccccc34)n2)cc1 | inactive | –
8 | O=C1/C(=C/c2cccc([N+](=O)[O-])c2)CCc2ccccc21 | active: 16.4 µM | –
9 | O=C(Nc1ccccc1)N1CCC(c2nc(-c3ccc(S(=O)(=O)N4CCOCC4)cc3)no2)CC1 | active: 4.11 µM | –
10 | CC1(C(=O)Nc2ccc(F)c(Cl)c2)Cc2c(-c3ccc(C(N)=O)cc3)ccnc2O1 (stereo not drawn) | inconclusive: 20.6 µM [cytotoxic, single point] | –
11 | O=[N+]([O-])c1ccccc1CN1CCN(Cc2c[nH]c3ccccc23)CC1 | inconclusive: 29.1 µM [cytotoxic, single point] | –
12 | Cc1ccc(-n2c(=S)[nH]c3sc4c(c3c2=O)CCc2ccccc2-4)cc1 | inactive | –
13 | COc1cc(NC(=O)C2CC(c3c(F)cccc3Cl)=NO2)c(OC)cc1Cl (stereo not drawn) | inconclusive: 14.6 µM [cytotoxic, partial curve] | –
14 | Cc1ccccc1NC(=O)N1C2CCCC1CC(NC(=O)C(C)(C)C)C2 (stereo not drawn) | inconclusive: 29.1 µM [rising, single point] | –
15 | CC1=C(C(=O)OCc2ccc(C)cc2)C(c2ccccc2F)CC(=O)N1 (stereo not drawn) | inactive | –
16 | C1CCC(n2nnnc2CN2CCN(C3CCCC3)CC2)CC1 | inconclusive: 18.4 µM [cytotoxic, partial curve, poor fit] | –
17 | COc1ccc2[nH]c(=S)[nH]c2c1 | inactive | –
18 | CNC[C@H](CC1CCCCC1)NC[C@H](Cc1ccccc1)NCCC12CC3CC(CC(C3)C1)C2 | active: 18.4 µM | –
19 | COc1ccccc1CNS(=O)(=O)c1c(C(=O)N2CCCCC2)c(C)n(C)c1C | inactive | –
20 | COc1ccccc1CCC(=O)OCc1csc(CC(=O)Nc2ccccc2C)n1 | inconclusive: 29.1 µM [rising, single point] | –
21 | CC(=O)N1c2c(cc(Br)cc2S(=O)(=O)N2CCCCC2)CC1C (stereo not drawn) | inconclusive: 29.1 µM [rising, single point] | –
22 | O=C(N/N=C/c1ccc(N2CCOCC2)cc1)c1ccccc1OCCOc1ccccc1 | inconclusive: 8.2 µM [cytotoxic, partial curve] | –
23 | Brc1ccc(Cn2c(-c3cncs3)nc3ccccc32)cc1 | active: 16.4 µM | –
24 | Cc1cc(/C=C(\C#N)C(=O)Nc2ccccc2)c(C)n1-c1cccnc1 | inconclusive: 7.31 µM [cytotoxic, partial curve] | –
25 | COc1ccc2c(c1)c(=O)c(C(=O)c1ccccc1)cn2CC(=O)Nc1ccc2c(c1)OCCO2 | inconclusive: 29.1 µM [rising, single point] | –

Numbers 19 through 21 of the list above:
Row | SMILES | Potency | activity change, negative = cytotoxicity
19 | COc1ccccc1CNS(=O)(=O)c1c(C(=O)N2CCCCC2)c(C)n(C)c1C | inactive | –
20 | COc1ccccc1CCC(=O)OCc1csc(CC(=O)Nc2ccccc2C)n1 | inconclusive: 29.1 µM [rising, single point] | –
21 | CC(=O)N1c2c(cc(Br)cc2S(=O)(=O)N2CCCCC2)CC1C (stereo not drawn) | inconclusive: 29.1 µM [rising, single point] | –

Quoted at random: three compounds from above, in no set order.
Row | SMILES | Potency | activity change, negative = cytotoxicity
20 | COc1ccccc1CCC(=O)OCc1csc(CC(=O)Nc2ccccc2C)n1 | inconclusive: 29.1 µM [rising, single point] | –
13 | COc1cc(NC(=O)C2CC(c3c(F)cccc3Cl)=NO2)c(OC)cc1Cl (stereo not drawn) | inconclusive: 14.6 µM [cytotoxic, partial curve] | –
18 | CNC[C@H](CC1CCCCC1)NC[C@H](Cc1ccccc1)NCCC12CC3CC(CC(C3)C1)C2 | active: 18.4 µM | –

The results go on:

Row | SMILES | Potency | activity change, negative = cytotoxicity
26 | CCOC(=O)Nc1ccc2c(CN3C(=O)NC(CC)(CC)C3=O)cc(=O)oc2c1 | inactive | –
27 | COc1cccc(-c2nc(S(=O)(=O)c3ccccc3)c(N3CCCCC3)o2)c1 | inactive | –
28 | Cc1ccccc1CN(CC(=O)Nc1cccc([N+](=O)[O-])c1)S(=O)(=O)c1ccc(Cl)cc1 | active: 5.8 µM | –
29 | O=C(COC(=O)c1ccc(S(=O)(=O)N2CCCC2)cc1)Nc1ccc(Cl)cc1 | inactive | –
30 | CC1C(=O)Nc2ccc(S(=O)(=O)N3CCN(c4cccc(C(F)(F)F)c4)CC3)cc2NC1=O (stereo not drawn) | inconclusive: 29.1 µM [rising, single point] | –
31 | COc1ccccc1CNC(=O)c1ccc(CS(=O)(=O)c2c(Cl)cccc2Cl)o1 | inactive | –
32 | Cc1cccc(C(=O)CC(=O)c2cc(Cl)ccc2O)c1 | active: 9.2 µM | –
33 | Cc1ccc(-n2c(SCC(=O)Nc3ncc(Cl)cc3Cl)nc3ccccc32)cc1 | inconclusive: 18.4 µM [cytotoxic, partial curve, poor fit] | –
34 | Cc1ccc(C2C(C#N)=C(N)Oc3n[nH]c(-c4cccnc4)c32)o1 (stereo not drawn) | inconclusive: 4.61 µM [rising, full curve] | –
35 | CCOC(=O)c1ccc(N2C(=O)c3[nH]nc(-c4ccc(C)cc4)c3C2c2ccc(O)c(OCC)c2)cc1 (stereo not drawn) | inconclusive: 29.1 µM [cytotoxic, single point] | –
36 | Cn1c(=O)c2c(nc(N/N=C/c3ccc(OC(=O)c4ccco4)cc3)n2Cc2ccc(F)cc2)n(C)c1=O | inactive | –
37 | COc1cc(OC)c(C(=O)OCC(=O)c2cc(C)n(CC3CCCO3)c2C)cc1OC (stereo not drawn) | inconclusive: 8.2 µM [cytotoxic, partial curve] | –
38 | Cc1ccc(NC(=O)CSc2nnc(CNC(=O)c3ccccc3F)o2)cc1Cl | inconclusive: 1.64 µM [rising, full curve] | –
39 | CCOC(=O)c1c(C)[nH]c(C)c1S(=O)(=O)N(C)CC(=O)Nc1cc(Cl)ccc1C | inactive | –
40 | Cc1ccc(-c2cnc(C(O)c3c(C)cccc3C)[nH]2)cc1 (stereo not drawn) | inconclusive: 29.1 µM [cytotoxic, single point] | –
41 | CCc1ccc(CNC(=O)c2c3c(nc4ccccc24)C(=O)N(C2CCCCC2)C3)cc1 | active: 13 µM | –
42 | C=CCNC(=O)c1ccc2nc(-c3ccco3)c(-c3ccco3)nc2c1 | inactive | –
43 | Cc1ccc2sc(N(CCN(C)C)C(=O)c3ccc(S(=O)(=O)N4CC(C)OC(C)C4)cc3)nc2c1C (stereo not drawn) | inactive | –
44 | O=C(N[C@@H]1C[C@H]2CC[C@@H]1C2)c1ccco1 | inconclusive: 20.6 µM [rising, single point] | –
45 | CSc1nc2nccc(-c3ccc(Oc4ccccc4)cc3)n2n1 | inconclusive: 16.4 µM [cytotoxic, single point] | –
46 | OC(CN1CCc2ccccc2C1)c1ccccc1 (stereo not drawn) | inactive | –
47 | O=C(Nc1nc2ccc(Cl)cc2s1)c1ccc(N2CCCCC2)c([N+](=O)[O-])c1 | inconclusive: 29.1 µM [cytotoxic, single point] | –
48 | Cc1ccc(N(CC(=O)N2CCCCCC2)S(C)(=O)=O)c(C)c1 | inactive | –
49 | COc1cc2c(=O)c(C(=O)c3ccc(C)c(C)c3)cn(Cc3ccccc3F)c2cc1OC | inconclusive: 13 µM [cytotoxic, partial curve, poor fit] | –
50 | COc1cccc(CNC(=O)C(=O)NCCC2CCCCN2S(=O)(=O)c2ccc(C)cc2)c1 (stereo not drawn) | inconclusive: 29.1 µM [cytotoxic, single point] | –

Row | SMILES | Potency | activity change, negative = cytotoxicity
51 | C=CCn1c(SCC#N)nc2ccc(Cl)cc2c1=O | inactive | –
52 | Cc1ccc(OCCNC(=O)[C@H]2O[C@@H](n3ccc(N)nc3=O)[C@H](O)[C@@H]2O)cc1C | inconclusive: 29.1 µM [cytotoxic, single point] | –
53 | CCn1c(=O)n(CC)c2cc(N3CCCC3)c(NC(=O)c3ccccc3F)cc21 | inconclusive: 1.84 µM [cytotoxic, full curve] | –
54 | CC(C)CCOP(=O)(c1ccc(N(C)C)cc1)C(O)c1ccccc1F (stereo not drawn) | active: 14.6 µM | –
55 | CC(=O)Nc1nc2ccc(C(=O)NCCOC(=O)C3CCCCC3)cc2s1 | inconclusive: 1.3 µM [rising, full curve, poor fit] | –
56 | COc1ccc(NC(=O)C2COc3ccccc3C2)cc1Cl (stereo not drawn) | inactive | –
57 | Cc1ccc(NC(=O)Nc2c(Cl)cccc2Cl)cn1 | inconclusive: 29.1 µM [cytotoxic, single point] | –
58 | Cc1cc2nc(N3CCN(C(=O)c4cccs4)CC3)sc2cc1C | inconclusive: 29.1 µM [cytotoxic, single point] | –
59 | C=CCSc1nnc(Cn2c(=O)sc3ccccc32)n1C | – | inconclusive: 31.6%
60 | CCOc1cc(C(=O)CCC(=O)OCC(=O)NC(=O)NCC(C)C)ccc1O | inactive | –
61 | CCCCNC(=O)C1CC(c2ccc(C(F)(F)F)cc2)=NO1 (stereo not drawn) | inactive | –
62 | CN(C)c1ccc(NC(=O)COC(=O)c2cc(=O)c3ccccc3o2)cc1 | inconclusive: 3.66 µM [rising, partial curve, poor fit] | –
63 | COc1ccc2c(c1)c(=O)c(C(=O)c1ccc(C)c(C)c1)cn2CC(=O)Nc1ccc2c(c1)OCCO2 | inconclusive: 29.1 µM [rising, single point] | –
64 | CC1=Nc2ccc(Br)cc2C(c2ccccc2)N1CC(=O)NN (stereo not drawn) | inactive | –
65 | COc1ccc(OC)c(S(=O)(=O)N2CCC(C(=O)NCc3ccccn3)CC2)c1 | inactive | –
66 | CN(C)C(CNC(=O)c1cc(S(=O)(=O)N2CCOCC2)ccc1F)c1cccs1 (stereo not drawn) | inactive | –
67 | COc1ccc(NC(=O)c2cccc(N3CCCS3(=O)=O)c2)cc1OC | inactive | –
68 | COC(=O)c1ccc(N2NC(=O)/C(=C/c3ccc(OC)c(OC)c3)C2=O)cc1 | inconclusive: 20.6 µM [rising, single point] | –
69 | NC(=O)C(c1ccccc1)c1ncc(C(F)(F)F)cc1Cl (stereo not drawn) | – | inconclusive: 14.6%
70 | COc1ccc(-n2nc([N+](=O)[O-])c(=NC3CCN(Cc4ccccc4)CC3)n2O)cc1 | inconclusive: 13 µM [cytotoxic, partial curve, poor fit] | –
71 | O=C1CC(c2ccccc2)CC(O)=C1C=NC1CCCCC1 (stereo not drawn) | active: 6.51 µM | –
72 | CCOC(=O)c1sc(NC(C)=O)cc1C | inactive | –
73 | COc1ccc(C(=O)NCC2CCCO2)cc1S(=O)(=O)NCc1ccc(Cl)cc1 (stereo not drawn) | inactive | –
